Measurements: patent US8470548
No constants are given. Whether binding was seen depends on the method and setting. Binding seen in cells or lysates may run through a third protein. Some entries that bind do so weakly or less than the wild type.

The chains behind the UniProt entries cited, without tags or fusion partners.
UniProt P28334: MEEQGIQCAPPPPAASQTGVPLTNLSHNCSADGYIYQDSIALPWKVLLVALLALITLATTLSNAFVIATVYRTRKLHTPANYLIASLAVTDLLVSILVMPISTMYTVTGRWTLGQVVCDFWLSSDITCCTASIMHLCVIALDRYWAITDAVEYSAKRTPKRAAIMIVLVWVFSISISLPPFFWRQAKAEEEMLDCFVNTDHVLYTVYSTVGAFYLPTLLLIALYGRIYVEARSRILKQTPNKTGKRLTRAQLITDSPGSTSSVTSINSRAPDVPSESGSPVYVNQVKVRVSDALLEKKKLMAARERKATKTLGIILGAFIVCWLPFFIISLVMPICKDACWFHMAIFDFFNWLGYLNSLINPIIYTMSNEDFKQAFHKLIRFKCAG
UniProt P08207: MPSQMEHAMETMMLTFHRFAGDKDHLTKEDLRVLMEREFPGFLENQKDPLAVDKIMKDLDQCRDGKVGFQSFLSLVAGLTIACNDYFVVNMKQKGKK

Molecular target: 5-HT1B receptor of mouse brain tissue (cerebral cortex) (mouse) (UniProt P28334)
Assay: co-immunoprecipitation from mouse cerebral cortex extracts with polyclonal 5-HT1B receptor antibody, immunoblot for p11

binding: binds
Substance: p11 of mouse brain tissue (cerebral cortex) (from UniProt P08207 1-97)
